Data as given in US11286242B2 (priority 2018, dated 2022).
Some of these results come from one statement about several compounds together.

Tested on: Rhizoctonia solani
Test: Rhizoctonia solani (rice sheath blight/potato black scurf) radial mycelial growth on Potato Dextrose Agar
Format: cell-based
Conditions: 300 ppm, Potato Dextrose Agar, 25° C., 60% relative humidity, seven days

Row | Compound | control compared to the untreated check
1 | O=S1(=Nc2ccc(-c3noc(C(F)(F)F)n3)cc2)CCOCC1 [Compound 133, 4-((4-(5-(trifluoromethyl)-1,2,4-oxadiazol-3-yl)phenyl)imino)-1,4λ^6-oxathiane 4-oxide] | more than 70%
2 | CS(=O)(Cc1ccc(C(F)(F)F)cc1)=NC(=O)c1ccc(-c2noc(C(F)(F)F)n2)cc1 (centres unmarked) [Compound 50, N-(methyl(oxo)(4-(trifluoromethyl)benzyl)-λ^6-sulfaneylidene)-4-(5-(trifluoromethyl)-1,2,4-oxadiazol-3-yl)benzamide] | more than 70%
3 | O=S1(=Nc2ccc(-c3noc(C(F)(F)F)n3)nc2)CCCCC1 [Compound 128, 1-((6-(5-(trifluoromethyl)-1,2,4-oxadiazol-3-yl)pyridin-3-yl)imino)hexahydro-1λ^6-thiopyran 1-oxide] | more than 70%
4 | CS(=O)(=Nc1ccc(-c2noc(C(F)(F)F)n2)cc1)c1ccncc1 (centres unmarked) [Compound 15, methyl(pyridin-4-yl)((4-(5-(trifluoromethyl)-1,2,4-oxadiazol-3-yl)phenyl)imino)-λ^6-sulfanone] | more than 70%
5 | CS(=O)(Cc1ccc(C(F)(F)F)cc1)=Nc1ccc(-c2noc(C(F)(F)F)n2)cc1 (centres unmarked) [Compound 90, methyl((4-(5-(trifluoromethyl)-1,2,4-oxadiazol-3-yl)phenyl)imino)(4-(trifluoromethyl)benzyl)-λ^6-sulfanone] | more than 70%
